Test results: PubChem BioAssay AID504834 (National Center for Advancing Translational Sciences (NCATS), 2011)
Hit rate of the full screen: of about 320,000 compounds, about 22,000 (6.9%) were called active. Inconclusive results, whose numbers are uncertain, are shown with a selection of clear calls. Calls come from the whole dose curve; as a rule, active = well fitted inhibition curve with a large enough effect; inconclusive = small, poorly fitted or top-dose-only effect, or another doubt; inactive = no such curve, though single readings can be large or run the other way. Potencies beside an inconclusive call are fits to weak or partial responses and may not hold up.

experiment: Primary qHTS for delayed death inhibitors of the malarial parasite plastid, 96 hour incubation; settings: P. falciparum luciferase reporter growth; series mostly up to 28.7 µM; activity change, negative = inhibition: at the top concentration
Summary of the method: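 Plates of compound plus infected erythrocytes (2% hematocrit, 0.05% parasitemia final) incubate 96 hours, 37 C, 5% CO2. Detection reagent added; reduced luminescence from the parasites' luciferase reporter flags inhibition.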
% is set by controls: 0 for no effect and ±100 for the full control effect; potency is the fitted concentration of half-maximal effect.

SMILES	Potency	activity change, negative = inhibition
CCOCCCNC(=O)C(NC(=O)Cc1cccs1)c1ccc(C)cc1 (centres undefined)	inconclusive: 11.7 µM [inhibitor, single point]	–
CCOc1nc(-c2ccccc2O)nc2ccccc12	–	inactive: 19.2%
CN(C)CCNC(=O)CNC(=S)N(CCCN1CCOCC1)Cc1cccs1	–	inactive: -18.3%
Cc1cnc(NC(=O)Cc2ccc(C)c(C)c2)s1	–	inactive: -23.2%
CC(C)(CN1CCCC1)NS(=O)(=O)c1ccccc1	–	inactive: 0%
Cc1cccc(NC(=O)N2CCC(NC(=O)C3CCCCC3)CC2)c1	–	inactive: 8.54%
Cc1sc2nc(CSCC(=O)N(CCC#N)c3ccccc3)[nH]c(=O)c2c1C	inconclusive: 11.7 µM [inhibitor, partial curve]	–
CCOC(=O)c1cc(-c2ccccc2)sc1NC(=O)COC(=O)c1ccc(Cl)c(S(N)(=O)=O)c1	inconclusive: 4.15 µM [inhibitor, single point]	–
O=C(NCc1cccnc1)C1CCN(S(=O)(=O)c2cccs2)CC1	inconclusive: 13.1 µM [inhibitor, single point]	–
CCOC(=O)N1CCN(C(=O)CN(c2ccc(OC)cc2)S(C)(=O)=O)CC1	inconclusive: 18.5 µM [inhibitor, single point]	–
O=C1C=C(c2ccc(OC(F)(F)F)cc2)C[C@@H](c2ccc(F)cc2)C1	inconclusive: 13.1 µM [inhibitor, partial curve]	–
COc1ccc(N2C(=O)C(CN3CCCCC3)C2c2ccccc2)cc1 (centres undefined)	inconclusive: 16.5 µM [inhibitor, partial curve, poor fit]	–
O=C(Nc1nnc(-c2ccc(F)cc2)o1)c1ccco1	–	inactive: -25%
COc1ccc(CC(=O)NNC(=O)c2nn(Cc3ccccc3)c(=O)c3ccccc23)cc1OC	inconclusive: 1.85 µM [inhibitor, partial curve, poor fit]	–
O=C(Nc1ccc2c(c1)OCO2)c1cn(Cc2ccc(F)cc2)nn1	inconclusive: 4.15 µM [inhibitor, partial curve, poor fit]	–
COc1ccc(C2CC(c3cc(OC)ccc3OC)n3nnnc3N2)cc1 (centres undefined)	inconclusive: 0.185 µM [inhibitor, full curve, poor fit]	–
COc1cc(OC)cc(C(=O)Nc2ccc3c(c2)n(C)c(=O)n3C)c1	–	inactive: 55.2%
CCCS(=O)(=O)N1CCCC(C(=O)N2CCCCC2)C1 (centres undefined)	–	inactive: 0.0937%
CCN(CC)S(=O)(=O)c1ccc(C(=O)Nc2cc(C)on2)cc1	active: 7.38 µM	–
Cc1cc(Nc2c(C)cccc2C)n2nc(C)nc2n1	inconclusive: 18.5 µM [inhibitor, single point]	–
COc1ccc([C@@H](C)NC(=O)CCc2nnc(-c3cc(C)on3)o2)cc1	active: 2.94 µM	–
CC(=O)c1ccc(Cc2ncc(C(F)(F)F)cc2Cl)s1	inconclusive: 13.1 µM [inhibitor, single point]	–

Pulled one by one from the entries so far (2):
SMILES	Potency	activity change, negative = inhibition
CCCS(=O)(=O)N1CCCC(C(=O)N2CCCCC2)C1 (centres undefined)	–	inactive: 0.0937%
Cc1cnc(NC(=O)Cc2ccc(C)c(C)c2)s1	–	inactive: -23.2%

(further entries)

SMILES	Potency	activity change, negative = inhibition
COc1ccc(-c2cc(C)no2)cc1S(=O)(=O)NCCc1ccco1	inconclusive: 10.4 µM [inhibitor, partial curve, poor fit]	–
COc1ccc(/C(N)=N/OC(=O)c2cc(-c3ccccc3)nc3ccccc23)cc1	–	inactive: 98.4%
COc1ccc(OC)c(C2=Nn3c(nnc3C3CCCCC3)SC2)c1	active: 9.28 µM	–
CCN(CC)CCCNC(=O)Cn1cnc2sc(C)c(S(=O)(=O)N3CCC(C)CC3)c2c1=O	inconclusive: 0.0828 µM [inhibitor, full curve, poor fit]	–
COc1ccc(C2C(C(C)=O)=C(O)C(=O)N2c2ccc(O)cc2)cc1 (centres undefined)	inconclusive: 18.5 µM [inhibitor, single point]	–
Cc1ccc(S(=O)(=O)N2CCOCC2)cc1NC(=O)c1cc2c(s1)CCC2	inconclusive: 6.57 µM [inhibitor, partial curve, poor fit]	–
CCOc1cc2[nH]c(=S)n(Cc3ccc(C(=O)NCC(OC)OC)cc3)c(=O)c2cc1OCC	inconclusive: 5.86 µM [inhibitor, partial curve, poor fit]	–
CCN(CC)C(=O)C1CCCN(c2ccc([N+](=O)[O-])cc2/C=N/NC(=O)c2cccc(O)c2)C1 (centres undefined)	inconclusive: 7.38 µM [inhibitor, partial curve, poor fit]	–
CN(C(=O)CNC(=O)c1ccc(Br)o1)C1CCCCC1	inconclusive: 9.28 µM [inhibitor, single point]	–
O=C(/C=C/c1cn(-c2ccccc2)nc1-c1cccc(Cl)c1)N1CCN(c2ccccn2)CC1	inconclusive: 8.28 µM [inhibitor, partial curve, poor fit]	–
Cc1cccc(NC(=O)CCNC(=O)c2ccccc2Cl)n1	–	inactive: 35.5%
CCCCNc1cc(NC(C)=O)cc2cc(OC)c(OC)cc12	–	inactive: -0.612%
O=C(NCCc1nc2ccccc2[nH]1)/C(=C/c1ccc2c(c1)OCO2)NC(=O)c1ccccc1	inconclusive: 0.0294 µM [inhibitor, full curve, poor fit]	–
Cc1cc(N2CCCCC2)nc2ccc(NC(=O)CCC(=O)NCCC(C)C)cc12	inconclusive: 18.5 µM [inhibitor, single point]	–
CCCc1cc(=O)oc2cc(OC(=O)CN3C(=O)NC4(CCCC4)C3=O)ccc12	inconclusive: 14.7 µM [inhibitor, single point]	–
O=C(N=Nc1c(O)n(Cc2ccccc2)c2ccccc12)c1cc2ccccc2cc1O	–	inactive: -4.33%
COc1cccc(CN2CCN(CC#Cc3ccccc3)CC2CCO)c1 (centres undefined)	inconclusive: 11.7 µM [inhibitor, single point]	–
COc1cc(OC)c(NC(=O)Cc2cccs2)cc1Cl	inconclusive: 14.7 µM [inhibitor, single point]	–
CCCCNC(=O)CSc1nc2ccc(N3CCOCC3)cc2c(=O)n1Cc1ccc(OC)cc1	inconclusive: 2.33 µM [inhibitor, full curve, poor fit]	–
COc1ccc(S(=O)(=O)N2CCCC2CNC(=O)C(=O)Nc2cccc(F)c2)cc1 (centres undefined)	inconclusive: 5.86 µM [inhibitor, partial curve]	–
Cc1ccc(C2=NN=C(NC(=O)CSc3nc(C)cc(C)n3)SC2)cc1	–	inactive: -5.32%
COc1ccc(CNC(=O)CN(C)S(=O)(=O)c2ccc3c(c2)c(=O)n(C)c(=O)n3C)cc1	inconclusive: 18.5 µM [inhibitor, single point]	–
